In the supplement of paper PMC10849652:
Some of the results follow.

Protein sequences, listed by entry. Tags and fused reporters are not part of them. Lines headed by an entry give the natural chain unless they say otherwise; changes in a name come on top.
UniProt P56282: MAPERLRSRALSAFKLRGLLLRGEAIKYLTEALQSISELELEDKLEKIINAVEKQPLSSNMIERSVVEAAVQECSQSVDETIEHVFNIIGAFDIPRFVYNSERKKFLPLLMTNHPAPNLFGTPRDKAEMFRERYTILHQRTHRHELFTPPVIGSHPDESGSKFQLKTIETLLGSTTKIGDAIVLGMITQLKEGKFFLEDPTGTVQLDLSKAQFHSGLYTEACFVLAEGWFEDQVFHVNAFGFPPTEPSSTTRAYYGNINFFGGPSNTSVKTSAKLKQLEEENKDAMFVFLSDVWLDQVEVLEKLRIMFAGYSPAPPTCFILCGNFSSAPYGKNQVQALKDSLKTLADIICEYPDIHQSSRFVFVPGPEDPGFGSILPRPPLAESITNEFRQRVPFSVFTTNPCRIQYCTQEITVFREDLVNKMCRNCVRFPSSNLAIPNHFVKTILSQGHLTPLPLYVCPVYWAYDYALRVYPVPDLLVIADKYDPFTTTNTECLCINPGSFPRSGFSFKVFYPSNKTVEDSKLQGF
UniProt P00491: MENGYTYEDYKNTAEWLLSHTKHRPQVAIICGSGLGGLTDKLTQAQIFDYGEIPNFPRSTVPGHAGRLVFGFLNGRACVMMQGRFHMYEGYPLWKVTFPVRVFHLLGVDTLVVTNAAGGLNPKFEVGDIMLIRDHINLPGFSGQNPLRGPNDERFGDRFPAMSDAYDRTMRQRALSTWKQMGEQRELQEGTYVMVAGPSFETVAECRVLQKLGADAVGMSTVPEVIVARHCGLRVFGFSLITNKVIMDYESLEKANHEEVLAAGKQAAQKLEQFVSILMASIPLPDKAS
UniProt Q8IWE5: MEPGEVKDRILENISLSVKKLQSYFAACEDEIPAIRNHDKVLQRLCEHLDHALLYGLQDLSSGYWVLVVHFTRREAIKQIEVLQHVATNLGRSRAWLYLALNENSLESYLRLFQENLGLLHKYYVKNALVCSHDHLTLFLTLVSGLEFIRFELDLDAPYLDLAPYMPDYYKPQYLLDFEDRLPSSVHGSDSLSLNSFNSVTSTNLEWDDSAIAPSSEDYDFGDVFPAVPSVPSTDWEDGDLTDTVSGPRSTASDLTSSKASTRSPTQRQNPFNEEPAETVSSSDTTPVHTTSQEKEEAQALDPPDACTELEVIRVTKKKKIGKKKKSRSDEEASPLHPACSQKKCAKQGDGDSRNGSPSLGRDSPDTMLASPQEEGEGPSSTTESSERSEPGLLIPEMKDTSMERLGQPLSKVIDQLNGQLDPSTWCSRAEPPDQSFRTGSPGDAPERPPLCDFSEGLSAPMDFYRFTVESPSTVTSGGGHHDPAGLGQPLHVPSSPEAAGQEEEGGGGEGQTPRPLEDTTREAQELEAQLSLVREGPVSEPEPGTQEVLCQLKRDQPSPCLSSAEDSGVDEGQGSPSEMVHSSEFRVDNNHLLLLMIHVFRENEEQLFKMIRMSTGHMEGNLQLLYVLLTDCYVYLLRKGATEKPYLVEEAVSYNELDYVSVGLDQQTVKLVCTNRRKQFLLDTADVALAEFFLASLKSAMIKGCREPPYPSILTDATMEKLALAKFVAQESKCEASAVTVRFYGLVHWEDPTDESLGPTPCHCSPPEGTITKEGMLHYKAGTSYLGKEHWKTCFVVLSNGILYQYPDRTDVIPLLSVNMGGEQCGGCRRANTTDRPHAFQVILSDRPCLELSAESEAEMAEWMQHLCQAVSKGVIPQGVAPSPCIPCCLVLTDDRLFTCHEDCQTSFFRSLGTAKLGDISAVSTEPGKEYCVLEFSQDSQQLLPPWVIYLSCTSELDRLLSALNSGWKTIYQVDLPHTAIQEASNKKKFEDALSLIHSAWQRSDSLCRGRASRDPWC
UniProt Q9NUX5: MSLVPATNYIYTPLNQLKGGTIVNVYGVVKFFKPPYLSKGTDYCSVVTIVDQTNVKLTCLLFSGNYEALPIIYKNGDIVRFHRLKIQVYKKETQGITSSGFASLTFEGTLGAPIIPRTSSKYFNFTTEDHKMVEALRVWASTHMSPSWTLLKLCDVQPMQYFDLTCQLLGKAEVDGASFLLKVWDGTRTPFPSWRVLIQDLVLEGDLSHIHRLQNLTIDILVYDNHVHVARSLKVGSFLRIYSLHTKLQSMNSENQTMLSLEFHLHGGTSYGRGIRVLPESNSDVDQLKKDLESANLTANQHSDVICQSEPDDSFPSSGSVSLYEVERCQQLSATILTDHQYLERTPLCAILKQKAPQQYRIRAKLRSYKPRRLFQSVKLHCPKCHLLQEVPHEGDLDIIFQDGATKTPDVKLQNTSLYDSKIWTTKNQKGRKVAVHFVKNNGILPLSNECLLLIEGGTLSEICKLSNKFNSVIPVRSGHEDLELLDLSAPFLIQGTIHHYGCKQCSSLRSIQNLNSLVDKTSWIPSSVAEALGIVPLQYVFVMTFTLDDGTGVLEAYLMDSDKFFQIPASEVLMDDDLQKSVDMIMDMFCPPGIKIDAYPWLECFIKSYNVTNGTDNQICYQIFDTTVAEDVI
UniProt P49005: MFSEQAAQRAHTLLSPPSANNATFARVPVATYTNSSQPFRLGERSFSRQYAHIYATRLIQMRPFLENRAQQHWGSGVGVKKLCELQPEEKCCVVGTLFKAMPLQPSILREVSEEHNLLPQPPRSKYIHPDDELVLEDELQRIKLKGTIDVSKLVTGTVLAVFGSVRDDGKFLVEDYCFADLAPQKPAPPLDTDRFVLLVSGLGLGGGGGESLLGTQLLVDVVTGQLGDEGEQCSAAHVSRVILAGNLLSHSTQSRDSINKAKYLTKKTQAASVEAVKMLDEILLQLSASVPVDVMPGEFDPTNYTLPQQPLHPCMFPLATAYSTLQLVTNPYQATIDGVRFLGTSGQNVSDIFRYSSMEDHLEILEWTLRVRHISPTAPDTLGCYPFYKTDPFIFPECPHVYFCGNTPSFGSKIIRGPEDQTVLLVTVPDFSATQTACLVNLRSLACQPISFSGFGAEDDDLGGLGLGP
UniProt O15318: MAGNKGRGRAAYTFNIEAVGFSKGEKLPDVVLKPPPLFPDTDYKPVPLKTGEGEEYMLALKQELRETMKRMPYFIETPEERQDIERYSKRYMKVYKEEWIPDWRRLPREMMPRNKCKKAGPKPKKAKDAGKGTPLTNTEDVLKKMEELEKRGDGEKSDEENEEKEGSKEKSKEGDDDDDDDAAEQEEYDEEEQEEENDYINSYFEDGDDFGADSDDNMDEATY
UniProt O94903: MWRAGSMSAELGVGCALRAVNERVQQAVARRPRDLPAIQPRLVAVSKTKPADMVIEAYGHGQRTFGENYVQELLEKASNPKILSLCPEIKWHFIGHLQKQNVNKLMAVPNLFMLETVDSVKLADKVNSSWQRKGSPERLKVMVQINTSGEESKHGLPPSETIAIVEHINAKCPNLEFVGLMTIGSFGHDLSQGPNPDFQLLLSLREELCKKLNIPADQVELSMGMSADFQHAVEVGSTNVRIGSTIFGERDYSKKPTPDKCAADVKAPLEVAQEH
UniProt P14859: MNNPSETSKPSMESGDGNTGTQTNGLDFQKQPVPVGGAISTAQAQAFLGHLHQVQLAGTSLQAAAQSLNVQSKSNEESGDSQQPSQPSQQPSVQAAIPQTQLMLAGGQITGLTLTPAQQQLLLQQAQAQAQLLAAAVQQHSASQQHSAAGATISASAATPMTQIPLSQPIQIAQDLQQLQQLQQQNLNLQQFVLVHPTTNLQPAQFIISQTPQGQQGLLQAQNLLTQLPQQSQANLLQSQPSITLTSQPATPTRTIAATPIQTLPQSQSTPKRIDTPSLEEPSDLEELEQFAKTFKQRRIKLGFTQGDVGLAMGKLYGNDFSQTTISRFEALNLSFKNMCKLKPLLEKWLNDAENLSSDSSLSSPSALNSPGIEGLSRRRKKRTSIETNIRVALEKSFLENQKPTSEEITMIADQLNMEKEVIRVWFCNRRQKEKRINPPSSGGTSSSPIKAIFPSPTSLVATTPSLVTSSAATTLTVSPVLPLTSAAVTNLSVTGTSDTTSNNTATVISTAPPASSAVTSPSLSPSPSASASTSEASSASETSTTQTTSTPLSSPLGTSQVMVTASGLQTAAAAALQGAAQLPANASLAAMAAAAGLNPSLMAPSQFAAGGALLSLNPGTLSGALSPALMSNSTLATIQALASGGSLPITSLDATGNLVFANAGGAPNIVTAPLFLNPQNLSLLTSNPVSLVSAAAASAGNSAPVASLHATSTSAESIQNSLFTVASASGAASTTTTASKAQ
UniProt Q8N490: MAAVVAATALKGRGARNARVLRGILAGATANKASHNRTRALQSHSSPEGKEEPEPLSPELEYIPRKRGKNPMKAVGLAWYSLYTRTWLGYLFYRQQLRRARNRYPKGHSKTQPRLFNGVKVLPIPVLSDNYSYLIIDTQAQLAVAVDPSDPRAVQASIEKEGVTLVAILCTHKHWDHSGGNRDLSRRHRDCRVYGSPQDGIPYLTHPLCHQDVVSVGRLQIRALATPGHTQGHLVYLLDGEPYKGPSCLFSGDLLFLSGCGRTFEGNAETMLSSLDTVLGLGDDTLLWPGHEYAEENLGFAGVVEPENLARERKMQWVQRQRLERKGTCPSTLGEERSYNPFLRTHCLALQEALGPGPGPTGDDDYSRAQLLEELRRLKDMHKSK
UniProt Q8WZA1: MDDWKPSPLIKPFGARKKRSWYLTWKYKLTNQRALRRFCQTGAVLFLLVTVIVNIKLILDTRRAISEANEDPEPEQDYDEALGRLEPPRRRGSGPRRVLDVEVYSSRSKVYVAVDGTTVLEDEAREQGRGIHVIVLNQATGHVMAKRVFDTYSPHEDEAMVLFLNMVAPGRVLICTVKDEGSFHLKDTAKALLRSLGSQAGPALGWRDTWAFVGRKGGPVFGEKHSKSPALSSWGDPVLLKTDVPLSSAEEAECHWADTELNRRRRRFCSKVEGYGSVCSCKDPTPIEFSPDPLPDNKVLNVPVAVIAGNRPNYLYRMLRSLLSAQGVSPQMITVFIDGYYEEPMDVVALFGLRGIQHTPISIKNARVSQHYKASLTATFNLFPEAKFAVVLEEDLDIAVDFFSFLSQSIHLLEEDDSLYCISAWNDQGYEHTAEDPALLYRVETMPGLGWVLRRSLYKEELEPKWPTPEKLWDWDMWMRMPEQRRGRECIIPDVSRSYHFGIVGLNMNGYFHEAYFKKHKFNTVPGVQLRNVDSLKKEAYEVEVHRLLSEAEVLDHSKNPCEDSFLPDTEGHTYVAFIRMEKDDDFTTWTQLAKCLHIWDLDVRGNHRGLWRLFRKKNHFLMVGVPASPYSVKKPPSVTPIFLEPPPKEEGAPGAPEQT
UniProt Q9NVU0: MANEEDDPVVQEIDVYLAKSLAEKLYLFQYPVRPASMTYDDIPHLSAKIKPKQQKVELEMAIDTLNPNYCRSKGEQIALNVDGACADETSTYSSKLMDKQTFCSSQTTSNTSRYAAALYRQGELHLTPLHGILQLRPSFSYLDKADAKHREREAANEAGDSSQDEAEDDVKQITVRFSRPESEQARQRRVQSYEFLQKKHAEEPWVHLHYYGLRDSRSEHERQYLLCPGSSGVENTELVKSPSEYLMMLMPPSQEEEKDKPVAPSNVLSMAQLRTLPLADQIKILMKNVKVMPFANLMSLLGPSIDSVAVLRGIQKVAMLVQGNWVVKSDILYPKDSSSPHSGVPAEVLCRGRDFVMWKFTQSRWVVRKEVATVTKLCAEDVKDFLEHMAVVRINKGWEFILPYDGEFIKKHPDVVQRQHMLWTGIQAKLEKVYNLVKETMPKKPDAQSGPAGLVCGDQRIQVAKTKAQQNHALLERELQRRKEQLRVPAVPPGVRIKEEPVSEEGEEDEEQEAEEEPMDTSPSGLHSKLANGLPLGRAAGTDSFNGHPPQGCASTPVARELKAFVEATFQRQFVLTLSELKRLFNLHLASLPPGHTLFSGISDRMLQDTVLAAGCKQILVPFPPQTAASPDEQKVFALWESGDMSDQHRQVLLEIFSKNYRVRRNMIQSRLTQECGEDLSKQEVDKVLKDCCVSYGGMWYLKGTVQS
UniProt Q14651: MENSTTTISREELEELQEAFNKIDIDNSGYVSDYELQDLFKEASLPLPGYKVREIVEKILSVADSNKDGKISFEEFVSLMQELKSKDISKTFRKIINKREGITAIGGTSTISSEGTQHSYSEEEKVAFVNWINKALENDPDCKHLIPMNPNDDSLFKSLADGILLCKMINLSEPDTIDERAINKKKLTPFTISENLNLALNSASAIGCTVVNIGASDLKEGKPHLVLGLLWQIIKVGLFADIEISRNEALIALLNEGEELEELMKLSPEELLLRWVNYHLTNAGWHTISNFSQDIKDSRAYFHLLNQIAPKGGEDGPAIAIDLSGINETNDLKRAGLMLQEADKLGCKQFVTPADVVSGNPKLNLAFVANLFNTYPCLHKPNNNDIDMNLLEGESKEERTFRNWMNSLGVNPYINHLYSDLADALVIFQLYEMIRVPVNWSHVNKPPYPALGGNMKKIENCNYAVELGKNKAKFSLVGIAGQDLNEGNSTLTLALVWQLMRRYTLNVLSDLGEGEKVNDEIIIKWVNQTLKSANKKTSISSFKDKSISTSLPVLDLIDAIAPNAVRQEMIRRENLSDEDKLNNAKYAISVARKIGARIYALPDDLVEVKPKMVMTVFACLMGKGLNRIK

Tests used:
Test in all cases: log2 fold change, soluble protein after heating vs DMSO (PISA); higher = thermal stabilisation; K562 lysate, 10 uM; active = over 0.2 and 3.5 SD of the protein, either way, in both replicates (recomputed)
ibrutinib = compound: C=CC(=O)N1CCC[C@@H](n2nc(-c3ccc(Oc4ccccc4)cc3)c3c(N)ncnc32)C1 [ibrutinib]
Summary of the method: (§1)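 Thermal stability, expressed as log-two fold change relative to solvent controls, is given from duplicates. Crude K562 extract in PBS pH 7.4 with 1 mM MgCl2, at 1 mg/mL protein, was treated with 10 μM compound for 30 min and heated in aliquots for 3 min across 48°C-58°C. After pooling, adjustment to 0.5% NP-40 at 4°C and centrifugation at 21,000xg for 90 min, supernatant protein was measured by TMTpro 16plex LC-MS/MS with channel sums equalised.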

[1] = compound: CC(=O)c1cnc2ccc(-c3cc(Cl)c(O)c(Cl)c3)nc2c1N[C@H]1CC[C@H](CN(C)C)CC1
Summary of the method: as §1

ralimetinib = compound: CC(C)(C)Cn1c(N)nc2ccc(-c3[nH]c(C(C)(C)C)nc3-c3ccc(F)cc3)nc21 [ralimetinib]
Summary of the method: as §1

[2] = compound: CC(C)(O)CC(=O)NCCn1ccc2ncnc(Nc3ccc(Oc4cccc(C(F)(F)F)c4)c(Cl)c3)c21
Summary of the method: as §1

[3] = compound: CC(C)C1=C2N=C(C=C(N2N=C1)NCC3=CC=CC=C3)NCCCCCCN
Summary of the method: as §1

[4] = compound: CC1=C(C(CC(=O)N1)C2=CC=C(C=C2)C(F)(F)F)C(=O)NC3=C(C=C4C(=C3)C=NN4)F
Summary of the method: as §1

[5] = compound: CC1=C(C2=C(C=C1)C(=O)C3=CC=CC=C3N2CCCN)C
Summary of the method: as §1

[6] = compound: CC1=C(C=C(C=C1)NC(=O)C2=CC(=CC=C2)C(C)(C)C#N)NC3=CC4=C(C=C3)N=CN(C4=O)C
Summary of the method: as §1

[7] = compound: CC1=C(C=C(C=C1)NC(=O)C2=CC(=CC=C2)N(C)C)NC(=O)C3=CC=C(C=C3)O
Summary of the method: as §1

[8] = compound: CC1=CC=C(C=C1)SC2=C3C=C(SC3=CN=C2)C(=O)N
Summary of the method: as §1

Measured: log2 fold change

POLR3B (UniProt Q9NW08)
inactive: ibrutinib 0.003 | [1] 0.005 | ralimetinib 0.008 | [2] -0.029 | [3] -0.01 | [4] -0.012 | [5] -0.046 | [6] -0.022 | [7] 0.02 | [8] 0.034

POLE2 (UniProt P56282)
inactive: ibrutinib 0.04 | [1] 0.189 | ralimetinib 0.048 | [2] -0.016 | [3] -0.024 | [4] 0.029 | [5] 0.004 | [6] 0.01 | [7] 0.009 | [8] 0.259

POLRMT (UniProt O00411)
inactive: ibrutinib -0.018 | [1] -0.011 | ralimetinib -0.021 | [2] -0.028 | [3] 0.011 | [4] 0.01 | [5] 0.027 | [6] 0.042 | [7] 0.047 | [8] -0.002

POLR2C (UniProt P19387)
inactive: ibrutinib -0.014 | [1] -0.002 | ralimetinib -0.017 | [2] 0.018 | [3] -0.002 | [4] 0.039 | [5] 0.004 | [6] 0.017 | [7] 0.018 | [8] 0.011

POFUT2 (UniProt Q9Y2G5)
inactive: ibrutinib -0.015 | [1] 0.003 | ralimetinib 0.111 | [2] 0.036 | [3] -0.012 | [4] 0.002 | [5] -0.075 | [6] 0.021 | [7] -0.048 | [8] 0.007

PNP (UniProt P00491)
inactive: ibrutinib -0.007 | [1] 0.01 | ralimetinib -0.002 | [2] -0.027 | [3] 0.001 | [4] -0.023 | [5] 0.016 | [6] 0.009 | [7] -0.004 | [8] -0.011

PLEKHM2 (UniProt Q8IWE5)
inactive: ibrutinib 0.031 | [1] 0.075 | ralimetinib 0.024 | [2] -0.105 | [3] -0.04 | [4] -0.048 | [5] 0.06 | [6] 0.036 | [7] 0.045 | [8] -0.037

POT1 (UniProt Q9NUX5)
inactive: ibrutinib 0.045 | [1] -0.018 | ralimetinib 0.015 | [2] -0.033 | [3] -0.073 | [4] -0.092 | [5] -0.058 | [6] 0.043 | [7] -0.078 | [8] -0.013

POLR3H (UniProt Q9Y535)
inactive: ibrutinib -0.022 | [1] 0.035 | ralimetinib 0.048 | [2] 0.068 | [3] 0.016 | [4] -0.149 | [5] -0.01 | [6] 0.009 | [7] -0.017 | [8] -0.062

POLR2F (UniProt P61218)
inactive: ibrutinib 0.02 | [1] 0.051 | ralimetinib -0.238 | [2] -0.059 | [3] -0.11 | [4] -0.039 | [5] 0.096 | [6] 0.009 | [7] -0.157 | [8] 0.009

PNPLA6 (UniProt Q8IY17)
inactive: ibrutinib 0.274 | [1] -0.014 | ralimetinib 0.023 | [2] -0.07 | [3] -0.119 | [4] 0.088 | [5] 0.103 | [6] -0.044 | [7] -0.044 | [8] -0.035

POLD2 (UniProt P49005)
inactive: ibrutinib 0.026 | [1] 0.015 | ralimetinib 0.018 | [2] 0.013 | [3] 0 | [4] -0.011 | [5] -0.024 | [6] -0.004 | [7] 0.037 | [8] 0.004

PNPLA8 (UniProt Q9NP80)
inactive: ibrutinib 0.047 | [1] 0.004 | ralimetinib -0.052 | [2] -0.012 | [3] -0.013 | [4] 0.047 | [5] 0.041 | [6] 0.004 | [7] 0.051 | [8] 0.022

POLR2G (UniProt P62487)
inactive: ibrutinib -0.01 | [1] -0.001 | ralimetinib 0.027 | [2] -0.017 | [3] -0.028 | [4] -0.015 | [5] 0.02 | [6] 0.029 | [7] -0.008 | [8] -0.01

PPIE (UniProt Q9UNP9)
inactive: ibrutinib -0.047 | [1] -0.015 | ralimetinib -0.041 | [2] -0.05 | [3] -0.025 | [4] -0.043 | [5] 0.021 | [6] 0.024 | [7] 0.034 | [8] -0.035

PLOD3 (UniProt O60568)
inactive: ibrutinib 0.002 | [1] 0.013 | ralimetinib 0.011 | [2] 0.028 | [3] 0.004 | [4] 0.039 | [5] 0.036 | [6] -0.018 | [7] -0.005 | [8] 0.031

POLR3G (UniProt O15318)
inactive: ibrutinib -0.04 | [1] 0.016 | ralimetinib -0.032 | [2] -0.08 | [3] -0.018 | [4] 0.063 | [5] -0.009 | [6] 0.011 | [7] -0.001 | [8] -0.002

PLPBP (UniProt O94903)
inactive: ibrutinib 0.015 | [1] -0.006 | ralimetinib 0.023 | [2] -0.018 | [3] -0.015 | [4] 0.046 | [5] 0.015 | [6] 0.055 | [7] 0.012 | [8] -0.009

POU2F1 isoform 6 (UniProt P14859)
inactive: ibrutinib -0.008 | [1] 0.01 | ralimetinib -0.011 | [2] -0.007 | [3] 0.012 | [4] 0.007 | [5] 0 | [6] -0.024 | [7] 0.011 | [8] -0.038

PNKD (UniProt Q8N490)
inactive: ibrutinib 0.031 | [1] -0.122 | ralimetinib 0.026 | [2] -0.145 | [3] 0.066 | [4] 0 | [5] -0.076 | [6] -0.179 | [7] 0.111 | [8] -0.008

POMGNT1 isoform 2 (UniProt Q8WZA1)
inactive: ibrutinib 0.085 | [1] -0.071 | ralimetinib -0.336 | [2] -0.093 | [3] 0.021 | [4] 0.019 | [5] 0.102 | [6] -0.02 | [7] 0.033 | [8] 0.022

PLS3 (UniProt P13797)
inactive: ibrutinib 0.021 | [1] 0.004 | ralimetinib 0.006 | [2] -0.04 | [3] -0.01 | [4] -0.017 | [5] -0.021 | [6] 0.013 | [7] -0.012 | [8] 0.003

PPFIA1 (UniProt Q13136)
inactive: ibrutinib -0.012 | [1] 0.015 | ralimetinib 0.03 | [2] -0.004 | [3] 0.016 | [4] -0.002 | [5] -0.121 | [6] -0.052 | [7] -0.012 | [8] -0.038

PODXL2 (UniProt Q9NZ53)
inactive: ibrutinib 0.134 | [1] -0.1 | ralimetinib 0.131 | [2] 0.019 | [3] -0.331 | [4] -0.029 | [5] -0.039 | [6] -0.041 | [7] 0.061 | [8] 0.057

POLR3E (UniProt Q9NVU0)
inactive: ibrutinib 0.02 | [1] 0.018 | ralimetinib 0.043 | [2] -0.006 | [3] 0.029 | [4] 0.025 | [5] -0.021 | [6] -0.004 | [7] 0.003 | [8] 0.007

POLR2J (UniProt P52435)
inactive: ibrutinib 0.039 | [1] 0.07 | ralimetinib 0 | [2] -0.035 | [3] 0.032 | [4] 0.023 | [5] 0.001 | [6] 0.048 | [7] 0.07 | [8] 0.094

Reprinted from the listing (two entries):
PLPBP (UniProt O94903)
inactive: ibrutinib 0.015 | [1] -0.006 | ralimetinib 0.023 | [2] -0.018 | [3] -0.015 | [4] 0.046 | [5] 0.015 | [6] 0.055 | [7] 0.012 | [8] -0.009

POU2F1 isoform 6 (UniProt P14859)
inactive: ibrutinib -0.008 | [1] 0.01 | ralimetinib -0.011 | [2] -0.007 | [3] 0.012 | [4] 0.007 | [5] 0 | [6] -0.024 | [7] 0.011 | [8] -0.038

Continuation:

PLS1 (UniProt Q14651)
inactive: ibrutinib 0 | [1] -0.009 | ralimetinib 0.011 | [2] -0.04 | [3] -0.005 | [4] 0.006 | [5] -0.003 | [6] 0.006 | [7] -0.013 | [8] 0.001

POP4 (UniProt O95707)
inactive: ibrutinib -0.057 | [1] 0.002 | ralimetinib 0.049 | [2] -0.044 | [3] -0.028 | [4] -0.04 | [5] 0.021 | [6] 0.028 | [7] -0.093 | [8] 0.047

PPFIA2 (UniProt O75334)
inactive: ibrutinib -0.013 | [1] 0.01 | ralimetinib 0.085 | [2] 0.015 | [3] 0.006 | [4] 0.041 | [5] 0.02 | [6] 0.047 | [7] 0.033 | [8] -0.022

POMP (UniProt Q9Y244)
inactive: ibrutinib -0.025 | [1] -0.043 | ralimetinib -0.001 | [2] -0.033 | [3] -0.013 | [4] 0.016 | [5] -0.09 | [6] 0.048 | [7] 0.027 | [8] -0.001
